Experimental data published in patent US20030129170.

Biological target: T1, goosecoid-like homeodomain protein (gscl) (Mus musculus) (UniProt P56916)
T1 sequence (looked up, limits assumed): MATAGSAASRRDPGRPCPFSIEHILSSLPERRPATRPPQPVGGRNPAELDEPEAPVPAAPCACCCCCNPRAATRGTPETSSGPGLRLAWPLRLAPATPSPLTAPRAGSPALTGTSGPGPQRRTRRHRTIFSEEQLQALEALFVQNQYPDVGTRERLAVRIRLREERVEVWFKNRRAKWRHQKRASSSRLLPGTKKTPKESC
Assay: EMSA
Conditions: protein in a lysate after overexpression

[1] = specific binding by EMSA and supershift, data not shown

GCTAATCCC (double strand) [hTH BBE II]
binding result (specific complex, supershifted by anti-gscl antiserum, competition with 25x and 12.5x unlabeled BBE II, label: 32P): binds

GCTAATCCC (double strand) [hTH BBE III]
binding result [1]: binds

TGTAATCCC (double strand) [hTH BBE IV]
binding result [1]: binds

TGTAATCCC (double strand) [hTH BBE I]
binding result [1]: binds

Where cells or extracts were used, other partners may take part. Protein sequences can lack the tags named with them.
